The text below walks through data of publication PMC7467722.

The chains behind the UniProt entries cited, without tags or fusion partners. Residues count along the entry.
UniProt P27038, residues 20-135: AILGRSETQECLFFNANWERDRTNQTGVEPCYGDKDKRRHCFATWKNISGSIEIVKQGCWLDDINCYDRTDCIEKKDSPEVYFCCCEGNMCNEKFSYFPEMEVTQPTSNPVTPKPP

The target in assay [1] is T1, CDON-Fc (secreted CDON ectodomain fused at its carboxy terminus with the IgG Fc region) (UniProt O35158).
T1 sequence: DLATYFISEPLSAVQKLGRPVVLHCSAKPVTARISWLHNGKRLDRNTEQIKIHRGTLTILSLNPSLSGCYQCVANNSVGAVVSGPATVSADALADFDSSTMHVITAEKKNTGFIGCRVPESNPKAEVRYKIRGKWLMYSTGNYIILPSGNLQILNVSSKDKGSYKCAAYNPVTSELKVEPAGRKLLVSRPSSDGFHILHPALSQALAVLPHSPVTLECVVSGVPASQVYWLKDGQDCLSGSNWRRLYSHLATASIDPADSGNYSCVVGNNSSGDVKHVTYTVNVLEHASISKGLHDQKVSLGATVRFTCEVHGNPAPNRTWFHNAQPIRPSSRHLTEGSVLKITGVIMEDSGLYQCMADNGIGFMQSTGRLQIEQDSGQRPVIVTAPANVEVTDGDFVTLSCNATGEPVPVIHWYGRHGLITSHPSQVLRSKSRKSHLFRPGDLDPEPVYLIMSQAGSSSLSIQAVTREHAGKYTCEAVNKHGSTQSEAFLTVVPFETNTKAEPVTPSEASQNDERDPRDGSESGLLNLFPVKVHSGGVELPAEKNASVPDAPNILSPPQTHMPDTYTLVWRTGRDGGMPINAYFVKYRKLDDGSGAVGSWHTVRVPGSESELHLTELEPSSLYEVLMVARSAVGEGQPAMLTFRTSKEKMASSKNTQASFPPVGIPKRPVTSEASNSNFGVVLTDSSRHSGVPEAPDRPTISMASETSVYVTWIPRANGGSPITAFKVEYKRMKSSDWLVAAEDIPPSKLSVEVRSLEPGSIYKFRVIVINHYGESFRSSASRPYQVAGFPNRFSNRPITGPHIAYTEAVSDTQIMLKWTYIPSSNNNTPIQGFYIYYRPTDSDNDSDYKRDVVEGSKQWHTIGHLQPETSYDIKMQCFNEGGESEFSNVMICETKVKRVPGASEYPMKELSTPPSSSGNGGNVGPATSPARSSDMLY
Briefly: pull-down; CDON-Fc co-expressed with AP-tagged protein in HEK293T; equivalent levels of Fc pulled down from conditioned medium with protein G agarose beads, 2 hr at 4°C, washed five times with HNTG buffer; associated AP enzyme activity quantified.

Assay [2] concerns the target ActRIIA-AP (Activin receptor IIA ectodomain fused at its carboxy terminus with alkaline phosphatase) (UniProt P27038). In words: pull-down; AP-tagged protein co-expressed with CDON-Fc in HEK293T; equivalent amounts of AP fusion proteins in conditioned medium pulled down with anti-AP agarose beads overnight at 4°C, washed five times with HNTG buffer (20 mM HEPES pH 7.5, 150 mM NaCl, 0.1% Triton X-100, 10% glycerol); captured CDON-Fc blotted with anti-human Fc.

Assay [3] concerns the target T2, ActRIIB-AP (Activin receptor IIB ectodomain fused at its carboxy terminus with alkaline phosphatase) (UniProt P27040).
T2 sequence: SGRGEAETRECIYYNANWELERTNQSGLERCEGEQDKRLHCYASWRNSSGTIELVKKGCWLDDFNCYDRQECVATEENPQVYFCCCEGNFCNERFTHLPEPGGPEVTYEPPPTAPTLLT
The description is as above.

Assay [4] has as its target T3, ALK4-AP (ALK4 ectodomain fused at its carboxy terminus with alkaline phosphatase) (UniProt Q61271).
T3 sequence: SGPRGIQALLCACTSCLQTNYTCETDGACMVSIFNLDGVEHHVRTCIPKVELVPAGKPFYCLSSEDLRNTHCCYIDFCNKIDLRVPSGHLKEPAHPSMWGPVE
The assay is described as above.

These are yes or no findings as the source states them, for the method shown. Binding seen in cells or lysates may run through a third protein. Some results given as binding are weak or reduced against the parent protein; the word gives no strength. Where a sequence is shown, tags or fusion partners need not be part of it.

For the molecule “ActRIIA-AP (Activin receptor IIA ectodomain fused at its carboxy terminus with alkaline phosphatase) (from UniProt P27038 20-135) (domain or fragment)”, the binding result in assay [1] is “binds weakly”.

B1: ActRIIB-AP (Activin receptor IIB ectodomain fused at its carboxy terminus with alkaline phosphatase) (domain or fragment, UniProt P27040 19-137)
chain: SGRGEAETRECIYYNANWELERTNQSGLERCEGEQDKRLHCYASWRNSSGTIELVKKGCWLDDFNCYDRQECVATEENPQVYFCCCEGNFCNERFTHLPEPGGPEVTYEPPPTAPTLLT
As to B1, in assay [1], the binding result is reported as “binds weakly”.

B2: ALK4-AP (ALK4 ectodomain fused at its carboxy terminus with alkaline phosphatase) (domain or fragment, UniProt Q61271 24-126)
chain: SGPRGIQALLCACTSCLQTNYTCETDGACMVSIFNLDGVEHHVRTCIPKVELVPAGKPFYCLSSEDLRNTHCCYIDFCNKIDLRVPSGHLKEPAHPSMWGPVE
Consider B2, for which the binding result in assay [1] is reported as “binds weakly”.

B3: CDON-Fc (secreted CDON ectodomain fused at its carboxy terminus with the IgG Fc region) (Fc fusion, UniProt O35158 25-963)
chain: DLATYFISEPLSAVQKLGRPVVLHCSAKPVTARISWLHNGKRLDRNTEQIKIHRGTLTILSLNPSLSGCYQCVANNSVGAVVSGPATVSADALADFDSSTMHVITAEKKNTGFIGCRVPESNPKAEVRYKIRGKWLMYSTGNYIILPSGNLQILNVSSKDKGSYKCAAYNPVTSELKVEPAGRKLLVSRPSSDGFHILHPALSQALAVLPHSPVTLECVVSGVPASQVYWLKDGQDCLSGSNWRRLYSHLATASIDPADSGNYSCVVGNNSSGDVKHVTYTVNVLEHASISKGLHDQKVSLGATVRFTCEVHGNPAPNRTWFHNAQPIRPSSRHLTEGSVLKITGVIMEDSGLYQCMADNGIGFMQSTGRLQIEQDSGQRPVIVTAPANVEVTDGDFVTLSCNATGEPVPVIHWYGRHGLITSHPSQVLRSKSRKSHLFRPGDLDPEPVYLIMSQAGSSSLSIQAVTREHAGKYTCEAVNKHGSTQSEAFLTVVPFETNTKAEPVTPSEASQNDERDPRDGSESGLLNLFPVKVHSGGVELPAEKNASVPDAPNILSPPQTHMPDTYTLVWRTGRDGGMPINAYFVKYRKLDDGSGAVGSWHTVRVPGSESELHLTELEPSSLYEVLMVARSAVGEGQPAMLTFRTSKEKMASSKNTQASFPPVGIPKRPVTSEASNSNFGVVLTDSSRHSGVPEAPDRPTISMASETSVYVTWIPRANGGSPITAFKVEYKRMKSSDWLVAAEDIPPSKLSVEVRSLEPGSIYKFRVIVINHYGESFRSSASRPYQVAGFPNRFSNRPITGPHIAYTEAVSDTQIMLKWTYIPSSNNNTPIQGFYIYYRPTDSDNDSDYKRDVVEGSKQWHTIGHLQPETSYDIKMQCFNEGGESEFSNVMICETKVKRVPGASEYPMKELSTPPSSSGNGGNVGPATSPARSSDMLY
With B3, the binding entry in assay [2], in assay [3] and in assay [4] was “binds weakly” each time.
